Experimental data published in patent US5849525A, “Compositions corresponding to a proton-coupled peptide transporter and methods of making and using same” (Brigham and Women's Hospital, Inc., priority 1995, dated 1998).
Part of at least one peptide drawing is inferred or uncertain, most often the ends. At least one structure is not confirmed: it was looked up by name or label, or the drawing left a doubt. Peptide text beside a SMILES is read from it.

Biological target: T1, proton-coupled peptide transporter (Oryctolagus cuniculus, UniProt P36836)
T1 construct: Xenopus laevis oocytes were injected with cRNA coding the proton-coupled peptide transporter; expressed in transfected cells; host or cells: Xenopus laevis oocytes injected with cRNA transcribed in vitro from the cloned cDNA
T1 sequence (P36836 1-707): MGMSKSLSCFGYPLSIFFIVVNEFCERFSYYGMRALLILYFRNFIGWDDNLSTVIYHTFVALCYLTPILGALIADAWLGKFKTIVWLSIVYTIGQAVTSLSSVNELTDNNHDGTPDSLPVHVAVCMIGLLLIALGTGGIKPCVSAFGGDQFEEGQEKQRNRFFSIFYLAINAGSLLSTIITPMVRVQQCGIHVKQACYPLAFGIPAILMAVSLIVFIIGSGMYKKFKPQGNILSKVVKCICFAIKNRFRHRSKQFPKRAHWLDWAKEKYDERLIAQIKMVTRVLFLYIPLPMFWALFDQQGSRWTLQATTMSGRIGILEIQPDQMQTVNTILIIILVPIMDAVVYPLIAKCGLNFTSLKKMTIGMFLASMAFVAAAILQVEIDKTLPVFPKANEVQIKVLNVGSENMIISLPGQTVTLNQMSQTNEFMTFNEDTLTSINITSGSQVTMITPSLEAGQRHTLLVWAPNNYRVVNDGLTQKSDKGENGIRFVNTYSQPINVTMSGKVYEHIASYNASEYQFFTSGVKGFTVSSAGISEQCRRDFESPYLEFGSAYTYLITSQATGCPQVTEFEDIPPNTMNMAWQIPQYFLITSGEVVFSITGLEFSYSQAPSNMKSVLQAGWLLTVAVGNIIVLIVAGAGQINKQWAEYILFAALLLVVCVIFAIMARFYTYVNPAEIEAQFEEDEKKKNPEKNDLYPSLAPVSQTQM
Experiment: Two-electrode voltage clamp of Xenopus laevis oocytes injected with transporter cRNA: substrate-evoked inward currents and Km
Type: cell-based, rabbit
Details: uptake solution pH 5.5
From the text: These oocytes were subjected to two electrode voltages clamp analysis (Gene Clamp 500, Axon Instruments, California) in the manner described in Kanaisy & Hediger, M. A. Nature 360, 467-71 (1992).
FIG. 9 depicts electrophysiological measurements of transformed cocytes as a percent of glycyl-sarcosine evoked current. Data representing glycyl-sarcosine are depicted as a solid black bar. Data representing peptide are depicted with dotted bars. Data representing antibiotics are depicted with hatched bars.
By altering peptide concentrations, current amplitudes for different compositions, Km values were determined.

## C[C@H](N)C(=O)N[C@@H](CC(=O)O)C(=O)O [Alanyl-aspartate] (H-Ala-Asp-OH)
  substrate-evoked inward current: large inward current
